Measured data: PubChem BioAssay AID686937 (Drosophila RNAi Screening Center, 2013)
The deposit covers about 23,000 reagents; shown is a random part of those with a known target gene and a result. 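Reduced-secretion tags in replicate 1 do not always agree with the z-scores; no criterion for assigning the tags was given.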 The numbers tell different reagents against one gene apart. A plus sign joins genes that one reagent is predicted to hit. Reagent sequences are not shown. The record does not give: the amount of reagent.

- Aim: 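Genes in the fly needed for secretion of protein constitutively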 (primary screen)
- System: Drosophila S2 cells expressing secreted horseradish peroxidase
- Knock-down reagent: long dsRNA against Drosophila genes
- Timing: about 5.5 days (5 days dsRNA, then 12 h reporter induction)
- Treatment: reporter expression induced after 5 days of dsRNA, read 12 h later; inducer not stated
- Measured: 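After 5 days of dsRNA and 12 h of reporter induction, medium peroxidase read by chemiluminescence and scored as per-plate z-score; higher values mean more reporter released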
- Scale: z-score: higher = more reporter secreted into medium

| gene | dsRNA no. | z-score, replicate 1 | z-score, replicate 2 | z-score, replicate 3 | z-score, replicate 4 | phenotype, replicate 1 |
| --- | --- | --- | --- | --- | --- | --- |
| CG13531 | 1 | 0.28 | 0.26 | – | – | – |
| Dph2 (Diphthamide biosynthesis 2) | 1 | 0.11 | 0.1 | – | – | – |
| slpr (slipper) | 1 | 0.32 | 0.42 | – | – | – |
| CG15480 | 1 | -0.06 | 0.15 | – | – | – |
| CG14200 | 1 | -4.9 | -2.96 | – | – | reduced secretion |
| CG8661 | 1 | -0.06 | -0.88 | – | – | – |
| mRpS29 (mitochondrial ribosomal protein S29) | 1 | 0.25 | 0 | – | – | – |
| CG10550 | 1 | 0.55 | 0.46 | – | – | – |
| PlexA (Plexin A) | 1 | 0.47 | 0.35 | – | – | – |
| E(spl)mgamma-HLH (Enhancer of split mgamma, helix-loop-helix) | 1 | 0.33 | 0.48 | – | – | – |
| CG33346 | 1 | -0.37 | -0.2 | – | – | – |
| CG15579 | 1 | 0.19 | 0.12 | – | – | – |
| c11.1 | 1 | 0.43 | 0.52 | – | – | – |
| CG5188 | 1 | -0.07 | -0.24 | – | – | – |
| CG15263 | 1 | 0.19 | 0.06 | 0.09 | 0.1 | – |
| mRpL45 (mitochondrial ribosomal protein L45) | 1 | 0.39 | -0.08 | – | – | – |
| Prx6c + CG12896 + Prx6b | 1 | 0.02 | 0.23 | – | – | – |
| Gcn5 (Gcn5 acetyltransferase) | 1 | 0.24 | -0.05 | – | – | – |
| phtf | 1 | 0.37 | 0.47 | – | – | – |
| CG5377 | 1 | -1.13 | -0.03 | – | – | – |
| pygo (pygopus) | 1 | 0.26 | -0.05 | – | – | – |
| CG15580 | 1 | 0.25 | 0.24 | – | – | – |
| CG31272 | 1 | 0.3 | 0.72 | – | – | – |

5 consecutive entries from above, for reference:
| gene | dsRNA no. | z-score, replicate 1 | z-score, replicate 2 | z-score, replicate 3 | z-score, replicate 4 | phenotype, replicate 1 |
| --- | --- | --- | --- | --- | --- | --- |
| CG13531 | 1 | 0.28 | 0.26 | – | – | – |
| Dph2 (Diphthamide biosynthesis 2) | 1 | 0.11 | 0.1 | – | – | – |
| slpr (slipper) | 1 | 0.32 | 0.42 | – | – | – |
| CG15480 | 1 | -0.06 | 0.15 | – | – | – |
| CG14200 | 1 | -4.9 | -2.96 | – | – | reduced secretion |

Further records follow.
| gene | dsRNA no. | z-score, replicate 1 | z-score, replicate 2 | z-score, replicate 3 | z-score, replicate 4 | phenotype, replicate 1 |
| --- | --- | --- | --- | --- | --- | --- |
| Vm26Ab (Vitelline membrane 26Ab) | 1 | 0.46 | 0.26 | 0.48 | 0.04 | – |
| CG30416 | 1 | 0.43 | 0.43 | – | – | – |
| Lcp4 (Larval cuticle protein 4) | 1 | 0.18 | 0.17 | – | – | – |
| CG5004 | 1 | 0.6 | 0.74 | – | – | – |
| CG5004 | 2 | 0.08 | -0.56 | – | – | – |
| CG5004 | 3 | -2.87 | -1.99 | – | – | reduced secretion |
| CG2681 | 1 | 0.16 | 0.13 | – | – | – |
| Mob2 | 1 | -1.68 | -0.85 | – | – | reduced secretion |
| Mob2 | 2 | 0.58 | 0.41 | – | – | – |
| Mob2 | 3 | 0.63 | 0.2 | – | – | – |
| eIF3k (eukaryotic translation initiation factor 3 subunit k) | 1 | 0.68 | 0.7 | – | – | – |
| CG6283 | 1 | 0.36 | 0.48 | – | – | – |
| CG31826 | 1 | 0.16 | 0.29 | – | – | – |
| b6 | 1 | 0.43 | 0.29 | – | – | – |
| CG34337 | 1 | 0.33 | 0.63 | – | – | – |
| Snx1 (Sorting nexin 1) | 1 | 0.06 | 0.17 | – | – | – |
| shn (schnurri) | 1 | 0.78 | 0.18 | – | – | – |
| shn (schnurri) | 2 | 0.24 | 0.29 | – | – | – |
| CSN6 (COP9 signalosome subunit 6) | 1 | -0.36 | -0.16 | – | – | – |
| Tango10 (Transport and Golgi organization 10) | 1 | -4.5 | -3.59 | – | – | reduced secretion |
| ZnT77C (Zinc transporter 77C) | 1 | 0.13 | 0.22 | – | – | – |
| ZnT77C (Zinc transporter 77C) | 2 | 0.35 | 0.43 | – | – | – |
| LSm3 (Like Sm 3) | 1 | 0.39 | 0.27 | – | – | – |
| Ccp84Ab | 1 | -0.04 | -1.13 | – | – | – |
| Vps13D (Vacuolar protein sorting 13D) | 1 | -0.56 | 0.32 | – | – | – |
| Vps13D (Vacuolar protein sorting 13D) | 2 | -0.48 | 0.27 | – | – | – |
| GIIIspla2 (Phospholipase A2 group III) | 1 | 0.68 | 0.61 | – | – | – |
| Orc5 (Origin recognition complex subunit 5) | 1 | 0.4 | 0.22 | – | – | – |
| Inx2 (Innexin 2) | 1 | 0.29 | 0.61 | – | – | – |
| loqs (loquacious) | 1 | 0.61 | 0.05 | – | – | – |
| CG9263 | 1 | 0.48 | 0.42 | – | – | – |
| CG32085 | 1 | 0.3 | 0.28 | – | – | – |
| CG32085 | 2 | 0.19 | 0.06 | – | – | – |
| CG32085 | 3 | 0.47 | 0.61 | – | – | – |
